Patent publication US9833430B2, “Neurodegenerative disorders and methods of treatment and diagnosis thereof” (The University of Queensland, priority 2013, dated 2017)

Assays:
wild-type mice = assay: Body weight of wild-type mice on triheptanoin diet; format: in vivo
hSOD1^G93A mice = assay: Body weight and onset of body weight loss in hSOD1^G93A mice; format: in vivo
From the text: Immediately after weaning, mice were placed on either a standard diet (SF11-027, Specialty Feeds, WA, AUS) or a matched diet (SF11-028, Specialty Feeds) in which 35% of the calories were from triheptanoin oil (Sasol, Germany). All diets were matched in protein, mineral, antioxidant and vitamin content relative to their caloric densities (Thomas et al., 2012). Triheptanoin replaced sucrose, some of the complex carbohydrates and long chain fats in the diet.
Animals underwent behavioral testing approximately 3-4 hours into the light cycle. All behavioral testing was conducted in an environment with minimal stimuli so as to minimize any possible effects caused by changes in external stimuli. Animals were weighed before every test session. Mice were observed, and disease progression tracked and graded according to a neurological score sheet to ensure that any non-ALS related deaths were excluded from the study. The neurological score was adapted from criteria developed at the ALS therapy development institute (Gill et al., 2009). In accordance with ethical requirements, hSOD1^G93A mice that became too weak to reach the food hoppers were provided with wet chow on the floor of the cages. The endpoint of the study was defined as the mouse being unable to right itself within 15 seconds after being placed on its back. […]

In the case of `CCCCCCC(=O)OCC(COC(=O)CCCCCC)OC(=O)CCCCCC` [triheptanoin, 1,3-di(heptanoyloxy)propan-2-yl heptanoate], the “body weight lighter than control fed mice” value (wild-type mice; at 14 weeks of age) is reported as “approximately 3 g”, the “body weight lighter than control fed mice” value (wild-type mice; at 22 weeks of age) is reported as “approximately 4 g” and the “body weight gain from 7-16 weeks vs control diet” value (hSOD1^G93A mice; hSOD1^G93A mice) is reported as “trend of reduced body weight gain”. For the same compound, the “body weight vs control diet over the full time period” value (hSOD1^G93A mice; hSOD1^G93A mice with 19-24 transgene copies) was “no statistically significant differences”.
